In doi:10.1101/2024.05.08.592561 (bioRxiv, 2024):

What was measured:
[1] = molecular target: T1, biotinylated ParT-His6 (wild type) (Streptomyces coelicolor) (UniProt Q8VWE5); experiment: BLI
T1 sequence (chain, biotin (NHS-PEG4-Biotin; sites not stated)): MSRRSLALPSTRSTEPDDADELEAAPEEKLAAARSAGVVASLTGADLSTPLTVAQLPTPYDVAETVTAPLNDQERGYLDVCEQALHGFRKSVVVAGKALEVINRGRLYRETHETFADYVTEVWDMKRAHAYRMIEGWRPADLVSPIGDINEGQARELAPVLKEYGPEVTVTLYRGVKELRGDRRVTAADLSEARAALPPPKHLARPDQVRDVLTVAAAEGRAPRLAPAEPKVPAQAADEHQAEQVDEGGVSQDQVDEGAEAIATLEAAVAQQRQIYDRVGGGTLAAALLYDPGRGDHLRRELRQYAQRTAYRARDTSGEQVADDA

[2] = molecular target: T1, biotinylated ParT-His6 (wild type) (Streptomyces coelicolor); experiment: condition: only with 1 mM ATP but without non-specific DNA
[3] = molecular target: T1, biotinylated ParT-His6 (wild type) (Streptomyces coelicolor); experiment: condition: only ParA alone, without ATP and non-specific DNA
[4] = molecular target: T1, biotinylated ParT-His6 (wild type) (Streptomyces coelicolor); experiment: condition: only with 0.05 mg/mL non-specific DNA but without ATP

Substance: ParA-His6 (SCP2 ParA) (Streptomyces coelicolor) (enzyme)
- binding [1]: binds
- binding [2]: no binding
- binding [3]: no binding
- binding [4]: no binding

Results are given in words; binding and its absence hold for the method and conditions named. For some of these results: A result given as binding can be weak or reduced; the word gives no strength. Tags and fused reporters may be left off the sequences shown.
